PubChem BioAssay AID743454 – Peter MacCallum Cancer Centre – 2014
Aim: 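Knock-downs lowering viability or raising caspase 3/7 activity in vorinostat-treated resistant cells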 (primary screen). Cells: human HCT116-VR colon cancer cells, selected for vorinostat resistance. Reagent: siRNA pool against human genes, 40 nM siRNA pool. Timing: vorinostat for 24 h, read-out about 72 h after transfection. Challenge: vorinostat at 2.5 µM final. Detection: 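Cell viability by CellTiter-Fluor and caspase 3/7 activity by luminescence, each scaled to mock wells per plate, duplicates averaged, then robust z-scored over all plates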. Reading the numbers: viability robust z-score: higher = more viable cells than screen typical; caspase robust z-score: higher = more caspase 3/7 activity than screen typical. Call rule: 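a knock-down is a hit when classed RV1 or RV2 for lowered viability, or CA1 or CA2 for caspase activation; those lethal without drug were dropped; hits were retested singly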.
Here is one part, drawn at random, of about 18,000 deposited reagents. In the full data, 450 (2.5%) are marked active. 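Single biological run; no consistent viability z cut-off exists, so the class columns, not z-scores, define the calls.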 Unmarked entries are inactive. No sequences are given here.

With UROD (GeneID 7389), how do the results read?
viability hit class: no change; caspase hit class: no change; viability robust z-score: -1.2; caspase robust z-score: 1.46

With SRSF7 (GeneID 6432), how do the results read?
viability hit class: no change; caspase hit class: no change; viability robust z-score: -0.8; caspase robust z-score: 3.8

With DNAJC30 (GeneID 84277), what does the deposit list?
viability hit class: no change; caspase hit class: no change; viability robust z-score: 0.8; caspase robust z-score: 0.26

How did the screen score CCL27 (GeneID 10850)?
viability hit class: no change; caspase hit class: no change; viability robust z-score: 0.45; caspase robust z-score: 0.92

For OR1J4 (GeneID 26219), what does the deposit list?
viability hit class: no change; caspase hit class: no change; viability robust z-score: 0.79; caspase robust z-score: -1.07

With VIT (GeneID 5212), what was measured?
viability hit class: no change; caspase hit class: no change; viability robust z-score: 1.18; caspase robust z-score: 0.39

With AQP3 (GeneID 360), how do the results read?
viability hit class: no change; caspase hit class: no change; viability robust z-score: 1.15; caspase robust z-score: -0.26

For POLR3F (GeneID 10621), what does the deposit list?
viability hit class: no change; caspase hit class: no change; viability robust z-score: -0.74; caspase robust z-score: 0.65

2 of these entries, reformatted.
target,viability hit class,caspase hit class,viability robust z-score,caspase robust z-score
AQP3 (GeneID 360),no change,no change,1.15,-0.26
POLR3F (GeneID 10621),no change,no change,-0.74,0.65

The listing continues:
For ADAM30 (GeneID 11085), what does the deposit list?
viability hit class: no change; caspase hit class: no change; viability robust z-score: 1.29; caspase robust z-score: -0.6

With CNGA1 (GeneID 1259), what was measured?
viability hit class: RV2 (reduced viability) (active); caspase hit class: no change; viability robust z-score: -4.02; caspase robust z-score: 1.06

How did the screen score REP15 (GeneID 387849)?
viability hit class: no change; caspase hit class: no change; viability robust z-score: -0.48; caspase robust z-score: -1.32

Which result is listed for CCL21 (GeneID 6366)?
viability hit class: no change; caspase hit class: no change; viability robust z-score: -0.11; caspase robust z-score: 0.22

With CA14 (GeneID 23632), what does the deposit list?
viability hit class: no change; caspase hit class: no change; viability robust z-score: -0.99; caspase robust z-score: -0.92

What did the screen give for COPS8 (GeneID 10920)?
viability hit class: no change; caspase hit class: no change; viability robust z-score: 0.15; caspase robust z-score: 0.91
